Chains of the proteins cited; added tags and fusions are not shown.
UniProt Q6A070: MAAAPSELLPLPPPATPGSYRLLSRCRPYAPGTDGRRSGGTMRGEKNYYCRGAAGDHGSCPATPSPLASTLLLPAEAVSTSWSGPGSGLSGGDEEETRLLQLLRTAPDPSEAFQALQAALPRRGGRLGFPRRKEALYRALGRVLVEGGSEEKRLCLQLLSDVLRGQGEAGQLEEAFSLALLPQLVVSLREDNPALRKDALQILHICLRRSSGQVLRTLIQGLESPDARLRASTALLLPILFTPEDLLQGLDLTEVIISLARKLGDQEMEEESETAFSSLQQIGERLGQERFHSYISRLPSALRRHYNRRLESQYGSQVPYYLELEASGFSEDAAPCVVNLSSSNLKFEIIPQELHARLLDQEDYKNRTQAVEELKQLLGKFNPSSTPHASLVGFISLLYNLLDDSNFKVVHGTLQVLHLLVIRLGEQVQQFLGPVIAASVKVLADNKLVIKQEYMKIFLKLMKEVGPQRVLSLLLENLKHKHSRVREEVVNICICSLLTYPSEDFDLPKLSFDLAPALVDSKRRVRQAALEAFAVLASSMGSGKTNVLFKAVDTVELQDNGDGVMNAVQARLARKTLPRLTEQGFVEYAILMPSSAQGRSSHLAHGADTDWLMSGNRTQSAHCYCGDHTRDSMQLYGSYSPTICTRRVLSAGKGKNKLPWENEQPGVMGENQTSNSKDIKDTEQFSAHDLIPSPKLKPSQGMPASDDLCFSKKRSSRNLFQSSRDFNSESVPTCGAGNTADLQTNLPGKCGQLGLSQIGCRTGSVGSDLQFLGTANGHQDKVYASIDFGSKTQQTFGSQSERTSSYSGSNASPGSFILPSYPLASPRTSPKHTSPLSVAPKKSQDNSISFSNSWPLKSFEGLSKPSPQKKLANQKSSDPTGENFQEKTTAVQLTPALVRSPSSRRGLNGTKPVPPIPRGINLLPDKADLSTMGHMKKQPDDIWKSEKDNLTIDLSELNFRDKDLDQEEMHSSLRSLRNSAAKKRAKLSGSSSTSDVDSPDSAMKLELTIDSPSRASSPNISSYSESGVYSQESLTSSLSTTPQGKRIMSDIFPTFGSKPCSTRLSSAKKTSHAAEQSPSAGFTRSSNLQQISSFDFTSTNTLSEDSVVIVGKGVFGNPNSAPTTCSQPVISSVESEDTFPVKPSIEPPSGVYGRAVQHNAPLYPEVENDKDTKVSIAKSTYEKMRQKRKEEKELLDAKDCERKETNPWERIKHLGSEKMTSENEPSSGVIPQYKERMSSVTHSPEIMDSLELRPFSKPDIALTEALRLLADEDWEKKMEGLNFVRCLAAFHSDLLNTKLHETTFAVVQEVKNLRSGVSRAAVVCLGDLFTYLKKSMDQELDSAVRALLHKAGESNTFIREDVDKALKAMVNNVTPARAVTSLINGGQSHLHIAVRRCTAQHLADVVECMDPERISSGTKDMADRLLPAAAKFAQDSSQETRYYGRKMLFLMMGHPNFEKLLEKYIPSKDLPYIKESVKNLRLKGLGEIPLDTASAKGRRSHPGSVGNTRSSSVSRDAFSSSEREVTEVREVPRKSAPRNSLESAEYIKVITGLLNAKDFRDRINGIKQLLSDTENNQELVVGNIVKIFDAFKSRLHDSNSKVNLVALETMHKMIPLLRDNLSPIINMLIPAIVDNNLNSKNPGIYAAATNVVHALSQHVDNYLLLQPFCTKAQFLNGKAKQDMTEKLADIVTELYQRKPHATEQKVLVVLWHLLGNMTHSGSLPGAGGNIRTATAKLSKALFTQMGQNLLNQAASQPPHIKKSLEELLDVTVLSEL

According to paper doi:10.1101/2024.06.16.599243:

T1: Flag-miniTurbo-CCDC66 (human) (UniProt A2RUB6)
T1 sequence: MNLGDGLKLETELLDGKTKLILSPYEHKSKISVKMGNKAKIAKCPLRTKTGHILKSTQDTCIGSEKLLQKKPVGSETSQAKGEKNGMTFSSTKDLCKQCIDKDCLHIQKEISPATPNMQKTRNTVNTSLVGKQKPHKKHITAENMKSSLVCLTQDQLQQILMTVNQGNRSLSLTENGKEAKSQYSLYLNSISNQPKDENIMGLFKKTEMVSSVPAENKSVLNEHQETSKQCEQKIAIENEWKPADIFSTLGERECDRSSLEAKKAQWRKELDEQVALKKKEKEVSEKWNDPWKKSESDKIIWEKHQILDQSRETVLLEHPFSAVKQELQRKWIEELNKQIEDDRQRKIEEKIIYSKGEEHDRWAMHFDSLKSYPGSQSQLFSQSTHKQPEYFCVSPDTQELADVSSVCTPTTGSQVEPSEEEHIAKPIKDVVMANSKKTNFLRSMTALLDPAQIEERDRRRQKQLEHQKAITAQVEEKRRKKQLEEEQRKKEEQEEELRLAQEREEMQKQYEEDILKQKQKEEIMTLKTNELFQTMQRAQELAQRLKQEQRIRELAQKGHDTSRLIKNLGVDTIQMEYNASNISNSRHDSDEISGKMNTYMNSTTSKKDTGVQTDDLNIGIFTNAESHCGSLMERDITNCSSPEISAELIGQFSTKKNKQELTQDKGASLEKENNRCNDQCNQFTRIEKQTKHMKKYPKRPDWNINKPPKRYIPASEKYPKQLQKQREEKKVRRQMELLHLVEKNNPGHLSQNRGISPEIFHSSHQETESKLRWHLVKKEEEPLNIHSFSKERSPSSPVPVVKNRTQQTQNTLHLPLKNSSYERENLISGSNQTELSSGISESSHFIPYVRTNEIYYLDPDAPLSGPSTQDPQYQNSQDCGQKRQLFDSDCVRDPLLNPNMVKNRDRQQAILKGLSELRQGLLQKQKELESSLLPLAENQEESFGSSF

B1: Armc9 (protein, UniProt Q9D2I5 1-817)
chain: MGDILAHESELLGLVKEYLDFAEFEDTLKTFSKECKVKGKPLCKNVGGPLKKDSKSLVIQRDLVAAFDSGDQKAFFDLWEGHIPSSVRDTDSLAQKLEFYLHIHFAIYLLKYCRGRPDKQELDKRISYFKTYLETKGAALSQTTEFLPFYALPFVPNPMVHPSFKELFQDSWTPELKLKLEKFLALTFKANNTPKLLTIYKENGPNSKELLQQLHQQLVEAERRAMTYLKRYNKIQADYHNLIGVTAELVDSLEATVSGKMITPEYLQSVCVRLFSNQMRQSLAHSVDFTRPGTASTMLRASLAPEKLKDVPLLPSLDYEKLKKDLIWGSDRLKAFLLQALRWRLTTSHPGEQRETVLQAYISNDLLDCHSHNQRSVLQLLHSKSEAVRQYMARLINALASLAEGRLYLAQNTKVLRMLEGRLKEEDKDVITRENVLGALQKFSLRRPLQTAMIRDGLIFWLIDLLKDPDCLSDYTLEYSVALLMNLCLRSAGKNMCAKVAGLMLKVLSDLLGHENHEIQPYVNGALYSILSIPSIREEARAMGMEDILRCFIKEGNAEMIRQIEFIIKQLNSEDLLDGVLESDDDEDEDDEEDHDIMEADLDKDELIQPQLGELSGEKLLTTEYLGIMTNTGKARRKGPASVQWSGDEPLRRPVTPGGHRTGCPVLGDHLISPQNAQQARNGCLRAMPVAHPDDYKEGKPGVTGCGTSSSFMDHKPREWSPAGHQKSRLVPTAALGWPREMTQDPSSGHITREFVPAFTCKPQVPSTPETVEQNPLKAKALSLAPQFSSSGPQQASRPASTASSTRGLHSSQSIRK
B2: Cep104 (protein, UniProt Q80V31 1-926)
chain: MPHKIGFVVVSSSGHEDGFSARELMIHAPTVSGWRSPKFCQFPQEIVLQMVERCRVRKLQLLAHQYMISSKVEFYISESLPEYLVPYQAERFRRLGYVSLCDNEKTGCKARELKSVYVDAVGQFLKLIFHQNHANKYNIYNQVALVAINIIGDPADLGDESNITSREKLIDHYLGHSPHNPEDPALDGTFSGRSDYISPLDDLAFDMYQDPEVAQIIRRLDERKREAVKKERYDHAKKLKQAIADLQKVGERLGRYEVEKRCAVEKEDYDLAKEKKQQMARYRAQVYEQLELHGLLQGEPEMQRPFALPLQPLASPSSPQHWKAVSSLPRTEKLVAEDSFAGPVLQEKPSASSPQHSAVDPSPPAAGHAPRSHTEVLPYDERPLPVTRKQLGEASAEAEVKEADSDVRRRGVAGEPEPLTEKALREASAAIDTLGEALVAGAYSKMWSCREDALLALYKKLMEMPVGTQKEDLKNMLRASVFLIRRAIKDIVASVFQASLKLLKMIITQYIPKHKLGKLDTTHCVERAFPLLLARAGDSSARLRVMALNFIQEMALFKEVKSLQLIPSYLVQPLKANASVHLAMSQVDLLARLLRDLGTESSGFTVDNVMKFAVSALEHRVYEVRETAVRIILDMYRQHPALTLEHLPPDDSATRRNLLYKAIFEGFAKIDGSVLPTEAEVRAQKRVATKEAEKQKKEEMKALQGQSGELRETQAGVQEKESEAVKLRNQDPQGRKAVLPDTPEIPANHFLDNLCIFCGERNESFTEEGLDLHYWKHCLMLTRCDHCRQVVEISSLTEHLLTECDRRDGFGKCPRCSEAIPKEELPGHIKTKECSPAKPEKVANHCPLCHENFAPGEEAWKVHLMGPAGCTMNLRKTHVLYKATAPQQGKGPAAAKSSTSAPKVGSKIPTPKGGLSKSSSRTYMRR
B3: Cspp1 (protein, UniProt B2RX88 1-1205)
chain: MADSLDEFIEEQKAKLAKDKAELESDPPYMEMKGKASEKLSENSKILISMAKENIPPSSQQQPKGPLGIEYGLSLPLGEDYEQKKHKLKEELRQDYRRYLTQGITQAKRKKNFLSTGETDPSTLGVSLPIDERLSAKERLKLERNREYNQFLRGKAESTEKVRQVEKNIEPKSQRNKNPISQGKSDLPLQIQTAYTHSEGPWLSRQEEGLYRQLDGEIELRSRRPLKQTKEEVGISGAEHPSLSGSAGVPERRARRANGERVLDRQHCRADRDPGVSEDMDERFRFESDFDRRLLRVYTNGRPHGSRRGYVDGDDVPEEPNTQISAAENKSVHCNGPPRSADLDITSPFAGMLFGGEDRELTKRRKEKYRQELLEQIAEQQKKKRREKDLAFGITTSGVQDPEKSPDRLKQFSLTPRHFEEMPPERPRVAFQTPPPPFSAPSSPSVPPVHSAPSHNEDLHSGLGSTLGELAHPRVLPVPLNPPPPPLLAPPASNYRTPYDDAYYFYGARNTLDPNIVYYGSGMIGGQPAPHVSAPVTHQVAPPAVNTVGQNEQKVLSDGLRNSGLVFEDKPKPSTQSLQSYQEALQEQIREREARRKKERLEKEEYEAKLEAEMRIYNPWGKGGGGAPLRDAKGNLITDLNRMHRQNIDAYHNPDARTYEDKRAVVSIDQNLATSNAENLEDSANKNSGPLQTQSSPFARGNTFGEPLSELQIKQQELYKNFLRFQIEEKRQREEAEREKLRVAEEKEEKRLAEQRARIQQEYEEEQERRREKEEEQRLKNEELIRLAEERRKEAERKKKEEEEKHNLQLQHYYERENIIGDETKHLRQPSPVVPALQNKIASKLQRPPSVDTIISSFIHESSMSRAQSPPVPARKNQLRAEEEKKNVIMELSEMRKQLRSEERRLQGRLLHLDSDDEIPMRKRERNPMDIFDMARHRVQAPVRRPSPKGLDATTFQNIHDFNELRERDSDTRVDLRLMYPDPPRDHHTLEIQQQALLREQQKRLNRIKMRRDAGADLDTICTDNAQGRRMPRDDTNDFLKNSLLESDSAFIGAYGETYPVIEDNAFPPPSQLPSARERRRNKLKGLDFDSSRLHTPQDGLSLKSISSVNVDQVRMRNEDRMRRLTEQQKKPTNTDDEGSLVDPDDIMRHLSDDGRNSAATEPWLRPGTSESLKRFMAEHLNEEQHKGPGKPGTFTWQGLSAAHA
B4: CEP55 (protein, UniProt Q8BT07 1-462)
chain: MSSRSPKDLIKSKWGSRPSSSKSDTALEKFKGEIAAFKTSLDEITSGKGKMAEKGRSRLLEKIQVLEAEREKNVYYLLEKDKEIQRLKDHLRSRYSSSSLFEQLEEKTKECEKKQQLLESLSKETDVLKNQLSATTKRLSELESKASTLHLSQSMPANCFNSSMNSIHEKEMQLKDALEKNQQWLVYDQQREAYVKGLLAKIFELEKRTETAAASLTQQMKKIESEGYLQVEKQKYDHLLENAKKDLEVERQAVTQLRLELDEFRRKYEEARKEVEDLNQLLSSQRKADIQHLEEDKQKTERIQKLREESSIFKGKLEEERKRSEELLSQVRILYDSLLKHQEEQARVALLEQQMQACTLDFENEKLDRQNMQHQLYVILKELRKAKSQITQLESLKQLHGFTITEQPFPLQREPESRVKATSPKSPSAALNDSLVECPKCSVQYPATEHRDLLVHVEYCMK
B5: Aurora kinase A (enzyme, UniProt P97477 1-395)
chain: MDRCKENCVSRPVKTTVPFGPKRVLVTEQIPSQNLGSASSGQAQRVLCPSNSQRVPSQAQKLGAGQKPAPKQLPAASVPRPVSRLNNPQKNEQPAASGNDSEKEQASLQKTEDTKKRQWTLEDFDIGRPLGKGKFGNVYLARERQSKFILALKVLFKTQLEKANVEHQLRREVEIQSHLRHPNILRLYGYFHDATRVYLILEYAPLGTVYRELQKLSKFDEQRTATYITELANALSYCHSKRVIHRDIKPENLLLGSNGELKIADFGWSVHAPSSRRTTMCGTLDYLPPEMIEGRMHDEKVDLWSLGVLCYEFLVGMPPFEAHTYQETYRRISRVEFTFPDFVTEGARDLISRLLKHNASQRLTLAEVLEHPWIKANSSKPPTGHTSKEPTSKSS
B6: Histone deacetylase 6 (enzyme, UniProt Q9Z2V5 1-1149)
chain: MTSTGQDSSTRQRKSRHNPQSPLQESSATLKRGGKKCAVPHSSPNLAEVKKKGKMKKLSQPAEEDLVVGLQGLDLNPETRVPVGTGLVFDEQLNDFHCLWDDSFPESPERLHAIREQLILEGLLGRCVSFQARFAEKEELMLVHSLEYIDLMETTQYMNEGELRVLAETYDSVYLHPNSYSCACLATGSVLRLVDALMGAEIRNGMAVIRPPGHHAQHNLMDGYCMFNHLAVAARYAQKKHRIQRVLIVDWDVHHGQGTQFIFDQDPSVLYFSIHRYEHGRFWPHLKASNWSTIGFGQGQGYTINVPWNQTGMRDADYIAAFLHILLPVASEFQPQLVLVAAGFDALHGDPKGEMAATPAGFAHLTHLLMGLAGGKLILSLEGGYNLRALAKGVSASLHTLLGDPCPMLESCVVPCASAQTSIYCTLEALEPFWEVLERSVETQEEDEVEEAVLEEEEEEGGWEATALPMDTWPLLQNRTGLVYDEKMMSHCNLWDNHHPETPQRILRIMCHLEEVGLAARCLILPARPALDSELLTCHSAEYVEHLRTTEKMKTRDLHREGANFDSIYICPSTFACAKLATGAACRLVEAVLSGEVLNGIAVVRPPGHHAEPNAACGFCFFNSVAVAARHAQIIAGRALRILIVDWDVHHGNGTQHIFEDDPSVLYVSLHRYDRGTFFPMGDEGASSQVGRDAGIGFTVNVPWNGPRMGDADYLAAWHRLVLPIAYEFNPELVLISAGFDAAQGDPLGGCQVTPEGYAHLTHLLMGLAGGRIILILEGGYNLASISESMAACTHSLLGDPPPQLTLLRPPQSGALVSISEVIQVHRKYWRSLRLMKMEDKEECSSSRLVIKKLPPTASPVSAKEMTTPKGKVPEESVRKTIAALPGKESTLGQAKSKMAKAVLAQGQSSEQAAKGTTLDLATSKETVGGATTDLWASAAAPENFPNQTTSVEALGETEPTPPASHTNKQTTGASPLQGVTAQQSLQLGVLSTLELSREAEEAHDSEEGLLGEAAGGQDMNSLMLTQGFGDFNTQDVFYAVTPLSWCPHLMAVCPIPAAGLDVSQPCKTCGTVQENWVCLTCYQVYCSRYVNAHMVCHHEASEHPLVLSCVDLSTWCYVCQAYVHHEDLQDVKNAAHQNKFGEDMPHSH

target: T1, Flag-miniTurbo-CCDC66 (human); test: proximity labelling

Molecule | binding
Togaram1 (from UniProt Q6A070 1-1776) | binds
B1 | binds
B2 | binds
B3 | binds
B4 | binds
B5 | no binding
B6 | no binding

These are yes or no findings as the source states them, for the method shown. Binding seen in cells or lysates may run through a third protein. Here binding means that the protein was enriched with, or labelled near, the bait; the list need not be complete. A no says only that the protein was not detected with the bait. Sequences can lack the tags named with a protein.
